Source: patent publication US20170189504A1, “NOVEL PEPTIDES AND COMBINATION OF PEPTIDES FOR USE IN IMMUNOTHERAPY AGAINST VARIOUS CANCERS” (immatics biotechnologies GmbH, priority 2015, published 2017)
For some of these results: Expression grades refer to the transcript from which the peptide derives; gene names, where given, were looked up from the sequence.

Legend:
HLA-A*24 = experiment: Identification and relative LC-MS quantitation of HLA-A*24-presented tumor-associated peptides on tissue samples (presentation profiles, Tables 14A, 14B, 16, FIG. 1); set-up: species or system human; key to Presentation score GC / Presentation score NSCLC / Presentation score PCA / Presentation score GB / Presentation score HCC / Presentation score RCC: specifically presented on tumors (++++); very highly over-presented on tumors compared to a panel of normal tissues (+++); highly over-presented on tumors compared to a panel of normal tissues (++); over-presented on tumors compared to a panel of normal tissues (+); details: for Presentation score GB: glioblastoma (N = 18) vs panel of normal tissues (N = 70); for Presentation score HCC: hepatocellular carcinoma (N = 15) vs panel of normal tissues (N = 70); for Presentation score NSCLC: non-small cell lung cancer (N = 91) vs panel of normal tissues (N = 70); for Peptide Presentation on cancer entities: Table 14A, HLA-A*24-binding tumor-associated peptides, cancer entities on which the peptide was found presented; for Presentation score GC: gastric cancer (N = 44) vs panel of normal tissues (N = 70); for Presentation score PCA: prostate cancer (N = 40) vs panel of normal tissues (N = 70)
source genes (mRNA) [1] = experiment: Gene and exon expression of source genes, TCGA tumor samples compared with normal tissue samples (Lonsdale, 2013) (Table 17); set-up: species or system human; details: for Over-expression category of source gene (target coverage), BRCA: BRCA = Breast cancer (N = 1104), tumors more than 2-fold above highest 75% percentile of normal tissues; for Over-expression category of source gene (target coverage), ESCA: ESCA = Esophageal cancer (N = 185); for Over-expression category of source gene (target coverage), LAML: LAML = Acute Myeloid Leukemia (N = 173); for Target coverage: over-expression category of source gene, PRAD: Prostate adenocarcinoma (N = 498)
source genes (mRNA) [2] = experiment: Expression profiling of source genes by in-house RNASeq of tumor and normal tissues (Table 18, FIG. 2); set-up: species or system human; key: very highly over-expressed in tumors compared to a panel of normal tissues (+++); highly over-expressed in tumors compared to a panel of normal tissues (++); over-expressed in tumors compared to a panel of normal tissues (+); details: source gene of peptide; for Expression score GB: glioblastoma (N = 24) vs panel of normal tissues; for Expression score OC: ovarian cancer (N = 12) vs panel of normal tissues; for Expression score NHL: non-Hodgkin lymphoma (N = 10) vs panel of normal tissues
[3] = tumor expression more than 2-fold above highest 75% percentile of high and medium risk normal tissues

224: peptide found in SMG1 (gene looked up) (QYLENLEKL; listed as Homo sapiens) [compound 224]
Presentation score GB (HLA-A*24; HLA-A*24 peptides): +
Presentation score HCC (HLA-A*24; HLA-A*24 peptides): +
Presentation score NSCLC (HLA-A*24; HLA-A*24 peptides): +
Peptide Presentation on cancer entities (HLA-A*24): GB, NSCLC, HCC
Over-expression category of source gene (target coverage), BRCA (source genes (mRNA) [1]): C (>=5% of tumors above the cutoff, but <20%)
Over-expression category of source gene (target coverage), ESCA (source genes (mRNA) [1]; same cutoff): C (>=5% of tumors above the cutoff, but <20%)
Over-expression category of source gene (target coverage), LAML (source genes (mRNA) [1]; same cutoff): A (>=50% of tumors above the cutoff)
Expression score CLL (source genes (mRNA) [2]; chronic lymphocytic leukemia (N = 10) vs panel of normal tissues): +

283: peptide found in ALKBH2 (gene looked up) (TYGDAGLTYTF; listed as Homo sapiens) [compound 283]
Presentation score GC (HLA-A*24; HLA-A*24 peptides): ++
Presentation score GB (HLA-A*24; HLA-A*24 peptides): +
Presentation score NSCLC (HLA-A*24; HLA-A*24 peptides): +++
Presentation score PCA (HLA-A*24; HLA-A*24 peptides): +++
Presentation score RCC (HLA-A*24; HLA-A*24 peptides, renal cell carcinoma (N = 2) vs panel of normal tissues (N = 70)): +++
Peptide Presentation on cancer entities (HLA-A*24): GB, GC, NSCLC, PCA, RCC
Target coverage: over-expression category of source gene, BLCA (source genes (mRNA) [1]; Bladder urothelial carcinoma (N = 408), tumor expression more than 2-fold above highest 75% percentile of high and medium risk normal tissues): C (>=5% of tumors above the cutoff, but <20%)
Target coverage: over-expression category of source gene, BRCA (source genes (mRNA) [1]; Breast cancer (N = 1104), tumor expression more than 2-fold above highest 75% percentile of high and medium risk normal tissues): C (>=5% of tumors above the cutoff, but <20%)
Target coverage: over-expression category of source gene, CHOL (source genes (mRNA) [1]; Cholangiocarcinoma (N = 36), tumor expression more than 2-fold above highest 75% percentile of high and medium risk normal tissues): C (>=5% of tumors above the cutoff, but <20%)
Target coverage: over-expression category of source gene, READ (source genes (mRNA) [1]; Colon and rectal adenocarcinoma (N = 167), tumor expression more than 2-fold above highest 75% percentile of high and medium risk normal tissues): C (>=5% of tumors above the cutoff, but <20%)
Target coverage: over-expression category of source gene, COAD (source genes (mRNA) [1]; Colon and rectal adenocarcinoma (N = 462), tumor expression more than 2-fold above highest 75% percentile of high and medium risk normal tissues): C (>=5% of tumors above the cutoff, but <20%)
Target coverage: over-expression category of source gene, GBM (source genes (mRNA) [1]; Glioblastoma multiforme (N = 169), tumor expression more than 2-fold above highest 75% percentile of high and medium risk normal tissues): B (>= 20% of tumors above the cutoff, but <50%)
Target coverage: over-expression category of source gene, LIHC (source genes (mRNA) [1]; Liver hepatocellular carcinoma (N = 374), tumor expression more than 2-fold above highest 75% percentile of high and medium risk normal tissues): B (>= 20% of tumors above the cutoff, but <50%)
Target coverage: over-expression category of source gene, LGG (source genes (mRNA) [1]; Lower grade glioma (N = 534), tumor expression more than 2-fold above highest 75% percentile of high and medium risk normal tissues): B (>= 20% of tumors above the cutoff, but <50%)
Target coverage: over-expression category of source gene, LUSC (source genes (mRNA) [1]; Lung squamous cell carcinoma (N = 503), tumor expression more than 2-fold above highest 75% percentile of high and medium risk normal tissues): C (>=5% of tumors above the cutoff, but <20%)
Target coverage: over-expression category of source gene, DLBC (source genes (mRNA) [1]; Lymphoid neoplasm diffuse large B-cell lymphoma (N = 48), tumor expression more than 2-fold above highest 75% percentile of high and medium risk normal tissues): C (>=5% of tumors above the cutoff, but <20%)
Target coverage: over-expression category of source gene, OV (source genes (mRNA) [1]; Ovarian serous cystadenocarcinoma (N = 309), tumor expression more than 2-fold above highest 75% percentile of high and medium risk normal tissues): C (>=5% of tumors above the cutoff, but <20%)
Target coverage: over-expression category of source gene, PRAD (source genes (mRNA) [1]; [3]): B (>= 20% of tumors above the cutoff, but <50%)
Target coverage: over-expression category of source gene, SKCM (source genes (mRNA) [1]; Skin cutaneous melanoma (N = 473), tumor expression more than 2-fold above highest 75% percentile of high and medium risk normal tissues): C (>=5% of tumors above the cutoff, but <20%)
Target coverage: over-expression category of source gene, UCEC (source genes (mRNA) [1]; Uterine corpus endometrial carcinoma (N = 546), tumor expression more than 2-fold above highest 75% percentile of high and medium risk normal tissues): B (>= 20% of tumors above the cutoff, but <50%)
Expression score GB (source genes (mRNA) [2]): +
Expression score HCC (source genes (mRNA) [2]; hepatocellular carcinoma (N = 15) vs panel of normal tissues): +
Expression score OC (source genes (mRNA) [2]): +

160: peptide found in ATAD2 (gene looked up) (VYTLDIPVL; listed as Homo sapiens) [compound 160]
number of cancer tissues where the peptide was found to be presented (HLA-A*24; FIG. 1, A*24 positive samples, only samples with presentation shown): 17
Presentation score GC (HLA-A*24; HLA-A*24 peptides): ++++
Presentation score HCC (HLA-A*24; HLA-A*24 peptides): ++++
Presentation score NSCLC (HLA-A*24; HLA-A*24 peptides): ++++
Presentation score PCA (HLA-A*24; HLA-A*24 peptides): ++++
Peptide Presentation on cancer entities (HLA-A*24): GC, NSCLC, HCC, PCA
Over-expression category of source gene (target coverage), BLCA (source genes (mRNA) [1]; BLCA = Bladder urothelial carcinoma (N = 408), same cutoff): B (>= 20% of tumors above the cutoff, but <50%)
Over-expression category of source gene (target coverage), BRCA (source genes (mRNA) [1]): A (>=50% of tumors above the cutoff)
Over-expression category of source gene (target coverage), CHOL (source genes (mRNA) [1]; CHOL = Cholangiocarcinoma (N = 36), same cutoff): C (>=5% of tumors above the cutoff, but <20%)
Over-expression category of source gene (target coverage), COAD (source genes (mRNA) [1]; COAD = Colon and rectal adenocarcinoma (N = 462), same cutoff): B (>= 20% of tumors above the cutoff, but <50%)
Over-expression category of source gene (target coverage), DLBC (source genes (mRNA) [1]; DLBC = Lymphoid neoplasm diffuse large B-cell lymphoma (N = 48), same cutoff): B (>= 20% of tumors above the cutoff, but <50%)
Over-expression category of source gene (target coverage), ESCA (source genes (mRNA) [1]; same cutoff): A (>=50% of tumors above the cutoff)
Over-expression category of source gene (target coverage), GBM (source genes (mRNA) [1]; GBM = Glioblastoma multiforme (N = 169), same cutoff): C (>=5% of tumors above the cutoff, but <20%)
Over-expression category of source gene (target coverage), LAML (source genes (mRNA) [1]; same cutoff): A (>=50% of tumors above the cutoff)
Over-expression category of source gene (target coverage), LGG (source genes (mRNA) [1]; LGG = Lower grade glioma (N = 534), same cutoff): C (>=5% of tumors above the cutoff, but <20%)
Over-expression category of source gene (target coverage), LIHC (source genes (mRNA) [1]; LIHC = Liver hepatocellular carcinoma (N = 374), same cutoff): C (>=5% of tumors above the cutoff, but <20%)
Over-expression category of source gene (target coverage), LUAD (source genes (mRNA) [1]; LUAD = Lung adenocarcinoma (N = 517), same cutoff): B (>= 20% of tumors above the cutoff, but <50%)
Over-expression category of source gene (target coverage), LUSC (source genes (mRNA) [1]; LUSC = Lung squamous cell carcinoma (N = 503), same cutoff): A (>=50% of tumors above the cutoff)
Over-expression category of source gene (target coverage), OV (source genes (mRNA) [1]; OV = Ovarian serous cystadenocarcinoma (N = 309), same cutoff): A (>=50% of tumors above the cutoff)
Over-expression category of source gene (target coverage), PRAD (source genes (mRNA) [1]; PRAD = Prostate adenocarcinoma (N = 498), same cutoff): C (>=5% of tumors above the cutoff, but <20%)
Over-expression category of source gene (target coverage), READ (source genes (mRNA) [1]; READ = Colon and rectal adenocarcinoma (N = 167), same cutoff): B (>= 20% of tumors above the cutoff, but <50%)
Over-expression category of source gene (target coverage), SKCM (source genes (mRNA) [1]; SKCM = Skin cutaneous melanoma (N = 473), same cutoff): B (>= 20% of tumors above the cutoff, but <50%)
Over-expression category of source gene (target coverage), STAD (source genes (mRNA) [1]; STAD = Stomach adenocarcinoma (N = 415), same cutoff): A (>=50% of tumors above the cutoff)
Over-expression category of source gene (target coverage), UCEC (source genes (mRNA) [1]; UCEC = Uterine corpus endometrial carcinoma (N = 546), same cutoff): C (>=5% of tumors above the cutoff, but <20%)
Expression score BRCA (source genes (mRNA) [2]; BRCA tumors vs panel of normal tissues): +
Expression score CRC (source genes (mRNA) [2]; colorectal cancer (N = 20) vs panel of normal tissues): +
Expression score OSCAR (source genes (mRNA) [2]; esophageal cancer incl. gastric-esophageal junction (N = 11) vs panel of normal tissues): +
Expression score GBC_CCC (source genes (mRNA) [2]; gallbladder adenocarcinoma and cholangiocarcinoma (N = 3) vs panel of normal tissues): +
Expression score NHL (source genes (mRNA) [2]): +
Expression score NSCLC (source genes (mRNA) [2]; non-small cell lung cancer (N = 11) vs panel of normal tissues): +
Expression score OC (source genes (mRNA) [2]): ++
Expression score SCLC (source genes (mRNA) [2]; small cell lung cancer (N = 10) vs panel of normal tissues): +++

274: peptide found in TAOK3 (gene looked up) (AYLHSHALI; listed as Homo sapiens) [compound 274]
Presentation score NSCLC (HLA-A*24; HLA-A*24 peptides): ++++
Presentation score PCA (HLA-A*24; HLA-A*24 peptides): ++++
Peptide Presentation on cancer entities (HLA-A*24): NSCLC, PCA
Target coverage: over-expression category of source gene, LAML (source genes (mRNA) [1]; Acute Myeloid Leukemia (N = 173), tumor expression more than 2-fold above highest 75% percentile of high and medium risk normal tissues): A (>=50% of tumors above the cutoff)
Target coverage: over-expression category of source gene, ESCA (source genes (mRNA) [1]; Esophageal cancer (N = 185), tumor expression more than 2-fold above highest 75% percentile of high and medium risk normal tissues): C (>=5% of tumors above the cutoff, but <20%)
Target coverage: over-expression category of source gene, PRAD (source genes (mRNA) [1]; [3]): B (>= 20% of tumors above the cutoff, but <50%)
Target coverage: over-expression category of source gene, STAD (source genes (mRNA) [1]; Stomach adenocarcinoma (N = 415), tumor expression more than 2-fold above highest 75% percentile of high and medium risk normal tissues): B (>= 20% of tumors above the cutoff, but <50%)
Expression score AML (source genes (mRNA) [2]; acute myeloid leukemia (N = 11) vs panel of normal tissues): +
Expression score GB (source genes (mRNA) [2]): +
Expression score NHL (source genes (mRNA) [2]): +
